Data from PubChem BioAssay AID1347075 (National Center for Advancing Translational Sciences (NCATS), 2019).
Several values for one entry are separate records, joined by “and”; a condition that tells them apart may be missing. Equal values may be shown once. Among all 400,000 compounds or so, about 5,500 (1.4%) were called active. Inconclusive means that the source gave no clear call. Such entries were picked first, then a sample of the others. Calls follow the shape of the dose curve; as a rule, active = well fitted cell-killing curve with a large enough effect; inconclusive = small, poorly fitted or top-dose-only effect, or effect the other way; inactive = flat fitted curve, though single readings scatter. Where the call is inconclusive, the potency comes from a doubtful curve fit.
% is scaled to controls: 0 for no effect and ±100 for the full control effect; potency is read from the fitted curve at half-maximal effect.

Assay: qHTS assay for MDR1-selective chemotherapeutics: Primary screen using the parental adenocarcinoma cell KB-3-1; also: nearly all actives have a fitted effect of over 60% in size
Details: KB-3-1 viability, CellTiter-Glo ATP luminescence, 72 h; activity change, negative = cytotoxic: at 46.1 µM (top of the series)
Procedure, shortened: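 Cells are dispensed, compounds pinned in, plates held at 37 °C for 72 h, then CellTiter-Glo is added and luminescence read after 10 minutes. Cell line: parental KB-3-1 in phenol-red-free DMEM, 10% FBS.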
In the case of `CCOc1ccc(CNC(=O)c2c(C)nn(-c3ccc(F)cc3)c2-n2cccc2)cc1`, the Potency was inconclusive: 29.1 µM [cytotoxic, single point].
With `CCOc1ccccc1NC(=O)c1nc(S(=O)(=O)Cc2ccccc2)ncc1Cl` the Potency was inconclusive: 29.1 µM [cytotoxic, single point].
With `Cn1cc(C(=O)NC2CCCCCCC2)c(=O)c2cc(S(=O)(=O)N3CCCC3)ccc21` the Potency was inconclusive: 20.6 µM [cytotoxic, partial curve].
In the case of `COc1ccc(OC)c(-c2cc(C(=O)Nc3cc(C)n(Cc4ccc(Cl)cc4)n3)no2)c1`, the activity change, negative = cytotoxic was inconclusive: -30.7% [cytotoxic].
In the case of `CC1CCc2c(sc(NC(=O)COc3ccccc3)c2C(=O)Nc2ccccc2Cl)C1` (configuration not stated), the Potency was inconclusive: 29.1 µM [rising, single point].
In the case of `Cc1cccc(C)c1-n1c(C)cc(/C=N/NC(=O)CSc2ncccn2)c1C`, the Potency was “inactive”.
In the case of `Cc1cc(C)n(-c2nnc3n2N=C(c2c[nH]c4ccccc24)CS3)n1`, the Potency was active: 7.31 µM.
With `CC1CCC(C(C)C)C(OCC(O)CNC(C)c2ccccc2)C1` (configuration not stated) the Potency was inconclusive: 29.1 µM [cytotoxic, single point].
In the case of `CCOc1ccc(/C=N/NC(=O)Cc2csc(Nc3cccc(C(F)(F)F)c3)n2)c(OCC)c1`, the Potency was inconclusive: 29.1 µM [cytotoxic, single point].
With `O=C(NCc1ccco1)c1cc(-c2cccs2)on1` the Potency was inconclusive: 35.5 µM [cytotoxic, single point].
In the case of `CCC(C)Sc1ccc(-c2nc3cnccn3c2NC2CCCCC2)cc1` (configuration not stated), the Potency was inconclusive: 18.4 µM [cytotoxic, single point] and inconclusive: 23.1 µM [cytotoxic, single point].
In the case of `Cc1ccc2oc(C(=O)N(Cc3ccccc3F)C3CCS(=O)(=O)C3)c(C)c2c1` (configuration not stated), the Potency was “inactive”.
In the case of `Cc1ccc(S(=O)(=O)c2c(N)n(Cc3ccco3)c3nc4ccccc4nc23)cc1`, the Potency was inconclusive: 29.1 µM [cytotoxic, single point].
For `CCCc1nc2ccc(Cl)cn2c1Cc1cccc(Cl)c1`, the Potency was inconclusive: 13 µM [cytotoxic, partial curve, poor fit].
In the case of `Cc1ccc2sc(N(CCCN(C)C)C(=O)c3ccc(S(=O)(=O)N4CCCCCC4)cc3)nc2c1C`, the Potency was inconclusive: 29.1 µM [cytotoxic, single point].
With `CCn1c(SCC(N)=O)nnc1-c1ccc2[nH]c(C)c(C)c2c1` the Potency was active: 5.8 µM.
For `COC(=O)c1nnn(-c2nonc2N)c1CN1CCc2ccccc21`, the Potency was active: 23.1 µM.
With `Cc1nc(SCC(=O)NC(C)c2ccccc2)c2oc3ccccc3c2n1` (configuration not stated) the Potency was “inactive”.
For `Cn1c(=O)[nH]c(=O)c2c1nc1n(CCO)c(-c3ccccc3)cn21`, the Potency was “inactive”.
With `CCCCOc1ccc(-c2cc3c(=O)n(CC(=O)Nc4ccc(Cl)cc4Cl)ccn3n2)cc1` the Potency was “inactive”.
In the case of `CCOC(=O)[C@@H]1[C@H]2COc3cc(OC)ccc3[C@@H]2N2C(=O)N(c3ccc(OC)cc3)C(=O)[C@@]12C`, the Potency was inconclusive: 0.184 µM [rising, full curve].
In the case of `Cc1cccc(N(C(=O)c2snc(C(N)=O)c2N)C(C(=O)NCc2ccccc2)c2ccncc2)c1` (configuration not stated), the Potency was active: 18.4 µM.
With `O=C(NC1CCCCCC1)c1ccc([N+](=O)[O-])s1` the Potency was inconclusive: 18.4 µM [cytotoxic, single point].
For `COc1ccc(CNC(=O)CSc2ncn[nH]2)cc1`, the Potency was inconclusive: 29.1 µM [cytotoxic, single point].
For `COCC(C)N=C1NN=C(c2ccc(NC(C)=O)cc2)CS1` (configuration not stated), the Potency was “inactive”.
In the case of `COc1ccc2oc(C(=O)Nc3ccc(S(=O)(=O)N(C)C4CCN(C)CC4)cc3)c(C)c2c1`, the Potency was inconclusive: 29.1 µM [cytotoxic, single point].
With `CNc1c(NS(=O)(=O)c2ccc(CC(C)C)cc2)c(=O)oc2ccccc12` the Potency was “inactive”.
In the case of `Cn1c(SCc2c(Cl)cccc2Cl)nc(C(F)(F)F)cc1=O`, the Potency was “inactive”.
With `Cn1nnnc1Sc1ncnc2scc(-c3ccc(Br)cc3)c12` the Potency was active: 11.6 µM.
In the case of `O=C(CN1CCN(c2ccccc2O)CC1)Nc1ccccc1C(=O)NCCc1ccccc1`, the Potency was inconclusive: 29.1 µM [cytotoxic, single point].
With `Cn1c(-c2ccc(F)cc2)cnc1NCc1cccc(F)c1` the Potency was inconclusive: 20.6 µM [cytotoxic, partial curve, poor fit].
In the case of `CCc1nc2ccc(C(=O)NCCCN3CCCC3=O)cn2c1N(C)C(=O)C1CCCCC1`, the Potency was “inactive”.
In the case of `Cc1[nH]n(C(N)=S)c(=O)c1N=Nc1ccc(S(=O)(=O)N2CCCC2)cc1`, the Potency was inconclusive: 3.66 µM [rising, partial curve].
With `Cc1cccc(COC[C@H](Cc2ccccc2)N2CCN(C(=O)c3cc(Cl)cc(Cl)c3)CCC2=O)c1` the Potency was inconclusive: 29.1 µM [cytotoxic, single point].
With `O=C1OC(=O)c2cc([N+](=O)[O-])ccc21` the Potency was “inactive”.
For `COc1ccc(CC(=O)Nc2cccc(C(C)=O)c2)cc1S(=O)(=O)N1CCOCC1`, the activity change, negative = cytotoxic was inconclusive: 1.67%.
With `CSCCC(NS(=O)(=O)c1ccc2c(c1)c(=O)n(C)c(=O)n2C)C(=O)NC1CCN(Cc2ccccc2)CC1` (configuration not stated) the Potency was “inactive”.
In the case of `COc1ccc(N(CC(=O)Nc2cccc(C(=O)O)c2)S(=O)(=O)c2c(C)noc2C)cc1`, the Potency was “inactive”.
With `COc1ccc(NC(=O)NCc2ccc3c(c2)OCO3)c(OC)c1` the Potency was inconclusive: 25.9 µM [rising, single point].
In the case of `CC(=O)Nc1ccc(S(=O)(=O)Nc2cccc(-c3nc4cc(C)ccc4o3)c2)cc1`, the Potency was active: 18.4 µM.
With `CC(C)c1ccc(C2/C(=C(\O)c3ccc4c(c3)OCCO4)C(=O)C(=O)N2CCN2CCOCC2)cc1` (configuration not stated) the Potency was inconclusive: 25.9 µM [cytotoxic, single point].
With `CCCOc1cccc(-c2cc(C(=O)NNC(=S)NCC)c3ccccc3n2)c1` the Potency was inconclusive: 29.1 µM [cytotoxic, single point].
With `Cc1ccc(-c2nc(CS(=O)CC(=O)N3CCN(c4ccccc4)CC3)c(C)o2)cc1` (configuration not stated) the Potency was inconclusive: 18.4 µM [cytotoxic, partial curve, poor fit] and the activity change, negative = cytotoxic was inconclusive: 0%.
For `CSc1nnc(-c2sc3cc(C(F)(F)F)cnc3c2-c2ccccc2)n1C`, the Potency was active: 6.51 µM.
In the case of `COC(=O)c1scc(S(=O)(=O)C(C)C)c1N/N=C(\C#N)C(=O)c1ccc(Cl)cc1`, the Potency was inconclusive: 29.1 µM [cytotoxic, single point].
In the case of `O=C(NCc1ccc(Cl)cc1)c1cccc(NC2=NC3CS(=O)(=O)CC3S2)c1` (configuration not stated), the Potency was inconclusive: 0.92 µM [rising, full curve, poor fit].
In the case of `CCOc1ccc(OCC)c(NC(=O)CN(c2ccc(C)cc2)S(=O)(=O)c2c(C)noc2C)c1`, the Potency was inconclusive: 23.1 µM [cytotoxic, single point].
For `N#C/C(=C/c1ccc(N2CCOCC2)o1)c1ccc(Br)cc1`, the Potency was inconclusive: 20.6 µM [cytotoxic, single point].
With `NC(=O)CN1C(=O)C(=O)N(Cc2ccccc2Cl)C1=O` the Potency was “inactive”.
With `Cc1ccc(C(=O)c2oc3ccccc3c2NC(=O)c2cc(-c3ccccc3)on2)cc1F` the Potency was “inactive”.
For `Cc1ccc(C)c(NC(=O)C2CCCN(S(=O)(=O)c3ccc4[nH]c(=O)ccc4c3)C2)c1` (configuration not stated), the Potency was inconclusive: 18.4 µM [cytotoxic, partial curve, poor fit].
In the case of `O=C(N[C@H]1C/C=C\C[C@@H](CC(=O)N(CCO)Cc2ccccc2)C(=O)N2CCC[C@H]2COC1=O)OCC1c2ccccc2-c2ccccc21`, the Potency was “inactive”.
With `CCOc1ccc(NC(=O)C2CCCN(S(=O)(=O)c3c(C)n[nH]c3C)C2)cc1` (configuration not stated) the Potency was inconclusive: 29.1 µM [cytotoxic, single point].
With `O=C(Nc1ccc2c(c1)OCO2)Nc1cnccn1` the Potency was inconclusive: 0.164 µM [rising, partial curve].
With `Cc1nnc(SCC(=O)N2CCC(Cc3ccccc3)CC2)n(N)c1=O` the Potency was “inactive”.
For `CCOc1ccccc1NC(=O)C1CCCN(S(=O)(=O)c2ccc3c(c2)C(C)(C)C(=O)N3C)C1` (configuration not stated), the Potency was inconclusive: 29.1 µM [cytotoxic, single point].
In the case of `Cc1ccc(S(=O)(=O)/N=C2\C=C(Nc3cccc(C(=O)O)c3)C(=O)c3ccccc32)c(C)c1`, the Potency was inconclusive: 18.4 µM [cytotoxic, single point].
For `COc1ccc(C)cc1N(CC(=O)Nc1cccc(N(C)S(C)(=O)=O)c1)S(C)(=O)=O`, the Potency was inconclusive: 18.4 µM [cytotoxic, single point].
For `O=C(O)COc1ccc(/C=C/c2nc3ccc([N+](=O)[O-])cc3s2)cc1`, the Potency was “inactive”.
For `COc1ccc(N2CCCC2)c(NC(=O)COc2ccccc2Cl)c1`, the Potency was “inactive”.
For `CC(C)OP(=O)(OC(C)C)C(NC(=O)c1ccc(Br)cc1)c1ccccc1` (configuration not stated), the Potency was inconclusive: 29.1 µM [cytotoxic, single point].
With `Cc1ccc(Nc2nc(NCC3CCCO3)nc(N)c2[N+](=O)[O-])cc1C` (configuration not stated) the Potency was inconclusive: 29.1 µM [rising, single point].
For `CC(C)c1ccc(NC(=O)COc2ccc(S(=O)(=O)N3CCOCC3)cc2)cc1`, the Potency was “inactive”.
In the case of `CCCC(NC(=O)CCc1c(C)c2cc3c(-c4ccccc4)coc3cc2oc1=O)C(=O)O` (configuration not stated), the Potency was “inactive”.
In the case of `COC(=O)[C@@]12CCCCN1[C@H](c1ccc(-c3cccc(Cl)c3)c(OC)c1)[C@@H]1C(=O)N(C)C(=O)[C@@H]12`, the Potency was inconclusive: 16.4 µM [cytotoxic, single point].
In the case of `Cc1cccc(OCCCN2C(=O)C(=O)c3cc(C)ccc32)c1`, the Potency was inconclusive: 16.4 µM [cytotoxic, single point].
